From patent US20190300573A1, “HUMAN MYOSIN PEPTIDES” (APITOPE INTERNATIONAL NV, priority 2016, published 2019)
Not every detail of the peptide structures is certain; ends, links or a residue may be inferred. Residues, ends and D or L forms follow the SMILES beside them.

System: α-myosin sensitized splenic cells
Experiment: Testing the antigenicity of T cell epitopes (stimulation index, 3H-thymidine incorporation)
Assay type: cell-based, DR4 mice
Settings: peptides 30, 3 and 0.3 μg/ml, screening repeated three times, FIG. 8
Description: The antigenicity of predicted peptides was assessed T cell proliferation against human cardiac myosin was measured by comparison of their stimulation index determined by 3H-thymidine incorporation assay (in brief: cells were pulsed with ^3H-Thymidine for 18 hours at the same conditions by adding 25 μl of diluted ^3H-Tymidine solution in RPMI to each well (final concentration 0.5 μCi/well). Finally, the cells were kept at −20 C.° at least overnight until ready to harvest. After thawing the plates, the cells were harvested onto glass fibre filters (Cox Scientific) using a Combo Cell Harvester (Skatron). Then the filters were soaked in Betaplate Scint liquid scintillation cocktail (Perkin Elmer) and sealed into sample bags (Perkin Elmer). Finally, the sealed bags containing the filters were placed into cassettes and the amount of scintillation was read using 1450 Microbeta Liquid Scintillation Counter (Perkin Elmer) in order to determine the level of ^3H-tymidine incorporation.). The α-myosin sensitized splenic cells were challenged with each peptide (GenScript (USA), peptide concentrations were 30, 3 and 0.3 μg/ml) or whole myosin (30 μg/ml).

CSCC[C@H](N)C(=O)N[C@@H](CC(C)C)C(=O)N[C@H](C(=O)N[C@@H](Cc1ccccc1)C(=O)N[C@@H](CC(C)C)C(=O)N[C@@H](Cc1c[nH]cn1)C(=O)N[C@@H](CCC(=O)O)C(=O)N1CCC[C@H]1C(=O)N[C@@H](C)C(=O)N[C@H](C(=O)N[C@@H](CC(C)C)C(=O)N[C@@H](Cc1ccccc1)C(=O)N[C@@H](CC(N)=O)C(=O)N[C@@H](CC(C)C)C(=O)N[C@@H](CCCCN)C(=O)O)C(C)C)[C@@H](C)O [MK, MLTFLHEPAVLFNLK] (H-MLTFLHEPAVLFNLK-OH; N-terminus and C-terminus assumed) was tested, and the stimulation index was “relatively good stimulation index”.
